Measurements as given in PMC13390769.

Chains of the proteins cited; added tags and fusions are not shown. Lines headed by an entry give the natural chain unless they say otherwise; changes in a name come on top.
UniProt Q96RK0: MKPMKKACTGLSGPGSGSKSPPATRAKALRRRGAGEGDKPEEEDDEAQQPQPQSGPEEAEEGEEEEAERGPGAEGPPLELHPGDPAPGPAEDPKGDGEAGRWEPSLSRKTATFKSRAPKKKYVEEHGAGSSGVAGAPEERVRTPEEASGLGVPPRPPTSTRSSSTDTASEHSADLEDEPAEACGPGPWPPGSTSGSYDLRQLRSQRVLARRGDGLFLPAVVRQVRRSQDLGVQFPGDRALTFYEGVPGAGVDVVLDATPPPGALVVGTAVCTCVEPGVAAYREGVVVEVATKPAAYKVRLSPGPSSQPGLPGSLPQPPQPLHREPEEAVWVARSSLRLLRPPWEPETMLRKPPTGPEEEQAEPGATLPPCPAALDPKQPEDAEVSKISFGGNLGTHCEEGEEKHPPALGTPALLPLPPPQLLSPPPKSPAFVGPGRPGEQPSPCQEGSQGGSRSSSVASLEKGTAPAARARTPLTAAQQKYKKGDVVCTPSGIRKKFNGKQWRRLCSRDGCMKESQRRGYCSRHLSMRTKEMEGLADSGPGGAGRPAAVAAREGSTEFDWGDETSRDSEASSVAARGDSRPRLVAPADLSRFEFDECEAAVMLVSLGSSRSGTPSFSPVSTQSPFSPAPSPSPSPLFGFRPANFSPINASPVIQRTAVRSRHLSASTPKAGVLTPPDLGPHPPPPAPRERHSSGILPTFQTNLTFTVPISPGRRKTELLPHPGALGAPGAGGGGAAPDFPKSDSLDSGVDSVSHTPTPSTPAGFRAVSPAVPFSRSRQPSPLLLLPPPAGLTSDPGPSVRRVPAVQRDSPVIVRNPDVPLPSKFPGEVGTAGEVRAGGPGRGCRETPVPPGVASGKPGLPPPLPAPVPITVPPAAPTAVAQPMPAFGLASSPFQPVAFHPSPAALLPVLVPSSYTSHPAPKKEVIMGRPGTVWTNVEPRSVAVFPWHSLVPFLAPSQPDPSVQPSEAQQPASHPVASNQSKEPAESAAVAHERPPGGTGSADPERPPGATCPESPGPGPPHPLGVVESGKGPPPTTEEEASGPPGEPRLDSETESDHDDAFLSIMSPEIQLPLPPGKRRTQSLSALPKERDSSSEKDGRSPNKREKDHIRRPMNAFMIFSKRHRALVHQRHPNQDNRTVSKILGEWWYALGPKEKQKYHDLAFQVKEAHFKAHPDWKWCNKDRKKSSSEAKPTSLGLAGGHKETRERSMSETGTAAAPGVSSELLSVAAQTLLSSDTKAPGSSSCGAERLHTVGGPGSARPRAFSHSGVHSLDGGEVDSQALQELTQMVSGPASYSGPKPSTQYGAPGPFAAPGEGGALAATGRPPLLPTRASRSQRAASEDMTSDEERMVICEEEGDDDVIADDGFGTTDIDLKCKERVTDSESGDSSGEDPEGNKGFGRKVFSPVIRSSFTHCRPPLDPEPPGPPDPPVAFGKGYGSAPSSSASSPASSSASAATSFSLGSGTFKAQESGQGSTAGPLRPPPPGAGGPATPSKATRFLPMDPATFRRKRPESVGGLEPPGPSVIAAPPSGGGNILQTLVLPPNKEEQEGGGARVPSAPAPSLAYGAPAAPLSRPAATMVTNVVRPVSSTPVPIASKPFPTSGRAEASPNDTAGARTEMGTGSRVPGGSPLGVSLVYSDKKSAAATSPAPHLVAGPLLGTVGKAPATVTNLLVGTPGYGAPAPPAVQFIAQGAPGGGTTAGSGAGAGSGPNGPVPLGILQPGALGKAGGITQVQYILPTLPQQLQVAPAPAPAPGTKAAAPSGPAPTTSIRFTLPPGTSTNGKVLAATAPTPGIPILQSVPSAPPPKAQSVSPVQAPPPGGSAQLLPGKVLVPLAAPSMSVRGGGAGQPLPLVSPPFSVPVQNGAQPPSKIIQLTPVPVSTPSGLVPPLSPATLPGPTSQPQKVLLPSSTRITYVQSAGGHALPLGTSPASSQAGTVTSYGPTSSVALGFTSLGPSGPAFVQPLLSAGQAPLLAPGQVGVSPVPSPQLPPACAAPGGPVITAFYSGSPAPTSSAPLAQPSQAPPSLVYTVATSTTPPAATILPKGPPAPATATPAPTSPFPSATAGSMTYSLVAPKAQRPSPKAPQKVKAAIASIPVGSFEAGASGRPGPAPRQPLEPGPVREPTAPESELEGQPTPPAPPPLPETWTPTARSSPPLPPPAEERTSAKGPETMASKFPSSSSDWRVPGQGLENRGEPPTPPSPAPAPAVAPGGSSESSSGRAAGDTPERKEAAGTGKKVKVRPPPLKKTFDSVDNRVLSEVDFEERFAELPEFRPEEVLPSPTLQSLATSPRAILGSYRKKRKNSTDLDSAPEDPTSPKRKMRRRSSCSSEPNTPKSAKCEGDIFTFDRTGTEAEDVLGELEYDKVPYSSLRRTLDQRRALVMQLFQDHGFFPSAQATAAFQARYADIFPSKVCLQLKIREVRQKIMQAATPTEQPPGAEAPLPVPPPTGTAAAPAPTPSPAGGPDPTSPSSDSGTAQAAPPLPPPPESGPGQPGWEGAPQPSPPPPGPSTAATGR

How the values were obtained:
Experiment in all cases: co-IP; HEK293T cotransfected with V5-tagged CIC constructs and FLAG-tagged ATXN1 or ATXN1L; lysis in 75 mM NaCl, 5 mM MgCl2, 50 mM Tris-HCl pH 8.0, 0.5% Triton X-100; IP with V5 antibody on Protein G Dynabeads, 2–4 h at 4°C; blot for FLAG
[1] = target: V5-tagged human CIC-S W37A (human)
[2] = target: V5-tagged human CIC-S, wild type (human) (UniProt Q96RK0)
[3] = target: V5-tagged human CIC-L W946A (human)
[4] = target: V5-tagged human CIC-L, wild type (human)
[5] = target: V5-tagged human CIC-L unique N-terminal region (CIC-Lunq) (human)

binding [1]: binds
binding [2]: binds
binding [3]: no binding
binding [4]: binds
binding [5]: no binding
B1: FLAG-tagged human ATXN1L (protein, UniProt P0C7T5 1-689)
chain: MKPVHERSQECLPPKKRDLPVTSEDMGRTTSCSTNHTPSSDASEWSRGVVVAGQSQAGARVSLGGDGAEAITGLTVDQYGMLYKVAVPPATFSPTGLPSVVNMSPLPPTFNVASSLIQHPGIHYPPLHYAQLPSTSLQFIGSPYSLPYAVPPNFLPSPLLSPSANLATSHLPHFVPYASLLAEGATPPPQAPSPAHSFNKAPSATSPSGQLPHHSSTQPLDLAPGRMPIYYQMSRLPAGYTLHETPPAGASPVLTPQESQSALEAAAANGGQRPRERNLVRRESEALDSPNSKGEGQGLVPVVECVVDGQLFSGSQTPRVEVAAPAHRGTPDTDLEVQRVVGALASQDYRVVAAQRKEEPSPLNLSHHTPDHQGEGRGSARNPAELAEKSQARGFYPQSHQEPVKHRPLPKAMVVANGNLVPTGTDSGLLPVGSEILVASSLDVQARATFPDKEPTPPPITSSHLPSHFMKGAIIQLATGELKRVEDLQTQDFVRSAEVSGGLKIDSSTVVDIQESQWPGFVMLHFVVGEQQSKVSIEVPPEHPFFVYGQGWSSCSPGRTTQLFSLPCHRLQVGDVCISISLQSLNSNSVSQASCAPPSQLGPPRERPERTVLGSRELCDSEGKSQPAGEGSRVVEPSQPESGAQACWPAPSFQRYSMQGEEARAALLRPSFIPQEVKLSIEGRSNAGK

These are yes or no findings as the source states them, for the method shown. Binding seen in cells or lysates may run through a third protein. For some assays here: A result given as binding can be weak or reduced; the word gives no strength. Tags and fused reporters may be left off the sequences shown.
